{"source": "patent US20240200085A1", "binders": {"B1": {"name": "NbNFR5 (VHH towards NFR5) with C-terminal non-cleavable 6x-histidine tag (VHH, not shown: small tags and cut ends)", "VHH": "QVQLVETGGGLVQDGDSLRLSCAASGFTFSNYYMSWVRQAPGKGLEWVSGITSGGTYTYDAVKDRFTISRDNAKNTLYLQMNSLKPEDTAVYYCAKGGTSVAVRGFYDYRGQGTQVTVSS"}}, "key": {"[1]": {"target": "Lotus NFR5 kinase (residues A276-T563) (Lotus japonicus)", "assay": "phage display selection and ELISA screen on coated NFR5 kinase, then analytical SEC (FIGS. 1A-1C)"}, "[2]": {"target": "Lotus NFR5 kinase (residues A276-T563) (Lotus japonicus)", "assay": "analytical size exclusion chromatography (Superdex 200 increase 10/300), 1:1.5 molar mix, co-elution confirmed by SDS-PAGE"}}, "note": "No constants are given. Whether binding was seen depends on the method and setting. Some binding calls cover weakened binding; strength is not graded here. Sequences can lack the tags named with a protein.", "data": [{"binder": "B1", "values": [{"measurement": "binding", "setting": "[1]", "value": "binds"}, {"measurement": "binding", "setting": "[2]", "value": "binds"}]}]}
